Results as given in the supplement of paper PMC10849652.
Some of the results follow.

Chains of the proteins cited; added tags and fusions are not shown. Lines headed by an entry give the natural chain unless they say otherwise; changes in a name come on top.
UniProt P09234, whole entry, looked up: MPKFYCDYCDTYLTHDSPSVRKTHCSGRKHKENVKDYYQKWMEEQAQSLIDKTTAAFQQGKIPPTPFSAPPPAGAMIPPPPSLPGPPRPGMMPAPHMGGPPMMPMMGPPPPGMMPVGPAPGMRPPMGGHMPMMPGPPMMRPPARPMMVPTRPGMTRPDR
UniProt Q9NRG4: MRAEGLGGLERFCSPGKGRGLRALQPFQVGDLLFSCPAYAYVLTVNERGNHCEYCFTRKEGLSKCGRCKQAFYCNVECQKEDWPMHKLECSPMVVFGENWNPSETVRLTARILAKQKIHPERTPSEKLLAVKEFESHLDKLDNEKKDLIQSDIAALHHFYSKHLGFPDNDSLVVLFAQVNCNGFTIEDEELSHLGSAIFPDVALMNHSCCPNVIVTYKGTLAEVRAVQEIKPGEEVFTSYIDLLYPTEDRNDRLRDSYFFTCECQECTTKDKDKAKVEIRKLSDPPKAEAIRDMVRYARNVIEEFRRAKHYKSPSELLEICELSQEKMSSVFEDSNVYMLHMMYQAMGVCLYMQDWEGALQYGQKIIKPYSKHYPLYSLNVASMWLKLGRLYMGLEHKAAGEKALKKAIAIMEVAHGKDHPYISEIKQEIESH
UniProt Q9Y5X3: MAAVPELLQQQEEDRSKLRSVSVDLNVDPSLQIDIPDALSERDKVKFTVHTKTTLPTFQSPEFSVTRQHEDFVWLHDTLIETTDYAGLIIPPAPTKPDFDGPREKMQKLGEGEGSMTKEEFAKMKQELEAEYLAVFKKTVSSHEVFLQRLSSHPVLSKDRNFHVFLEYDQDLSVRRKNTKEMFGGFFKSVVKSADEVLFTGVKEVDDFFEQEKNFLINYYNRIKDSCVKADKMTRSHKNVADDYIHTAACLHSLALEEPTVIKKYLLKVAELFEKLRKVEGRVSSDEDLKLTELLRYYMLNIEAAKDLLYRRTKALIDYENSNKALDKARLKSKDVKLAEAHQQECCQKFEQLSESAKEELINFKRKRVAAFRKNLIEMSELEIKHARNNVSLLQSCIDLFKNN
UniProt P62304, whole entry, looked up: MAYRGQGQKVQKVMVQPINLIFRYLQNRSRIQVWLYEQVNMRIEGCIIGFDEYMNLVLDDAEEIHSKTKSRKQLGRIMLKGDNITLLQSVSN
UniProt Q9Y5W7: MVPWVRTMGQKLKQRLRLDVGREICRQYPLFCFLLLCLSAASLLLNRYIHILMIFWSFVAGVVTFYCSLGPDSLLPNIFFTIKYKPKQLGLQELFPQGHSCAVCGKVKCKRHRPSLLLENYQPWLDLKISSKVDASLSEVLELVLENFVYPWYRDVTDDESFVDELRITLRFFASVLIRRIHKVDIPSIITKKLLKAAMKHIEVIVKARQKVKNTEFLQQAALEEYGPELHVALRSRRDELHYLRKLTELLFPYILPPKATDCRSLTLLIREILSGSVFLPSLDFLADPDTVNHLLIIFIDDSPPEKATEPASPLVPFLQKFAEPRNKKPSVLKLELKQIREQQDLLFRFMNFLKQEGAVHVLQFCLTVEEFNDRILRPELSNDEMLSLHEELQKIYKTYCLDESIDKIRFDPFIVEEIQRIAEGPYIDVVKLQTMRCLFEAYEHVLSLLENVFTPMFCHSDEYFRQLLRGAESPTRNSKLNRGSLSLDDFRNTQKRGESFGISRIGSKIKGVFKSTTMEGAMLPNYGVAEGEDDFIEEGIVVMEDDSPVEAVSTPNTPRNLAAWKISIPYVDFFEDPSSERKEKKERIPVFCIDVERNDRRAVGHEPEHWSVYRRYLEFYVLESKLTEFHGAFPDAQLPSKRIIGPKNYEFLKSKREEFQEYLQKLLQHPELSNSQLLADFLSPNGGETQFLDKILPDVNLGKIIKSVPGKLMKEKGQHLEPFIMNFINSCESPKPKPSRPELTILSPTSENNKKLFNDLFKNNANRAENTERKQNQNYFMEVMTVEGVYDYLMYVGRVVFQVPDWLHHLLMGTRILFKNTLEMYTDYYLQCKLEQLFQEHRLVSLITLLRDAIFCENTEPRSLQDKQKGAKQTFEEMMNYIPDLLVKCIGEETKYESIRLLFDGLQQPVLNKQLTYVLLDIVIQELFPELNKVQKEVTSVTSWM
UniProt O75643, whole entry, looked up: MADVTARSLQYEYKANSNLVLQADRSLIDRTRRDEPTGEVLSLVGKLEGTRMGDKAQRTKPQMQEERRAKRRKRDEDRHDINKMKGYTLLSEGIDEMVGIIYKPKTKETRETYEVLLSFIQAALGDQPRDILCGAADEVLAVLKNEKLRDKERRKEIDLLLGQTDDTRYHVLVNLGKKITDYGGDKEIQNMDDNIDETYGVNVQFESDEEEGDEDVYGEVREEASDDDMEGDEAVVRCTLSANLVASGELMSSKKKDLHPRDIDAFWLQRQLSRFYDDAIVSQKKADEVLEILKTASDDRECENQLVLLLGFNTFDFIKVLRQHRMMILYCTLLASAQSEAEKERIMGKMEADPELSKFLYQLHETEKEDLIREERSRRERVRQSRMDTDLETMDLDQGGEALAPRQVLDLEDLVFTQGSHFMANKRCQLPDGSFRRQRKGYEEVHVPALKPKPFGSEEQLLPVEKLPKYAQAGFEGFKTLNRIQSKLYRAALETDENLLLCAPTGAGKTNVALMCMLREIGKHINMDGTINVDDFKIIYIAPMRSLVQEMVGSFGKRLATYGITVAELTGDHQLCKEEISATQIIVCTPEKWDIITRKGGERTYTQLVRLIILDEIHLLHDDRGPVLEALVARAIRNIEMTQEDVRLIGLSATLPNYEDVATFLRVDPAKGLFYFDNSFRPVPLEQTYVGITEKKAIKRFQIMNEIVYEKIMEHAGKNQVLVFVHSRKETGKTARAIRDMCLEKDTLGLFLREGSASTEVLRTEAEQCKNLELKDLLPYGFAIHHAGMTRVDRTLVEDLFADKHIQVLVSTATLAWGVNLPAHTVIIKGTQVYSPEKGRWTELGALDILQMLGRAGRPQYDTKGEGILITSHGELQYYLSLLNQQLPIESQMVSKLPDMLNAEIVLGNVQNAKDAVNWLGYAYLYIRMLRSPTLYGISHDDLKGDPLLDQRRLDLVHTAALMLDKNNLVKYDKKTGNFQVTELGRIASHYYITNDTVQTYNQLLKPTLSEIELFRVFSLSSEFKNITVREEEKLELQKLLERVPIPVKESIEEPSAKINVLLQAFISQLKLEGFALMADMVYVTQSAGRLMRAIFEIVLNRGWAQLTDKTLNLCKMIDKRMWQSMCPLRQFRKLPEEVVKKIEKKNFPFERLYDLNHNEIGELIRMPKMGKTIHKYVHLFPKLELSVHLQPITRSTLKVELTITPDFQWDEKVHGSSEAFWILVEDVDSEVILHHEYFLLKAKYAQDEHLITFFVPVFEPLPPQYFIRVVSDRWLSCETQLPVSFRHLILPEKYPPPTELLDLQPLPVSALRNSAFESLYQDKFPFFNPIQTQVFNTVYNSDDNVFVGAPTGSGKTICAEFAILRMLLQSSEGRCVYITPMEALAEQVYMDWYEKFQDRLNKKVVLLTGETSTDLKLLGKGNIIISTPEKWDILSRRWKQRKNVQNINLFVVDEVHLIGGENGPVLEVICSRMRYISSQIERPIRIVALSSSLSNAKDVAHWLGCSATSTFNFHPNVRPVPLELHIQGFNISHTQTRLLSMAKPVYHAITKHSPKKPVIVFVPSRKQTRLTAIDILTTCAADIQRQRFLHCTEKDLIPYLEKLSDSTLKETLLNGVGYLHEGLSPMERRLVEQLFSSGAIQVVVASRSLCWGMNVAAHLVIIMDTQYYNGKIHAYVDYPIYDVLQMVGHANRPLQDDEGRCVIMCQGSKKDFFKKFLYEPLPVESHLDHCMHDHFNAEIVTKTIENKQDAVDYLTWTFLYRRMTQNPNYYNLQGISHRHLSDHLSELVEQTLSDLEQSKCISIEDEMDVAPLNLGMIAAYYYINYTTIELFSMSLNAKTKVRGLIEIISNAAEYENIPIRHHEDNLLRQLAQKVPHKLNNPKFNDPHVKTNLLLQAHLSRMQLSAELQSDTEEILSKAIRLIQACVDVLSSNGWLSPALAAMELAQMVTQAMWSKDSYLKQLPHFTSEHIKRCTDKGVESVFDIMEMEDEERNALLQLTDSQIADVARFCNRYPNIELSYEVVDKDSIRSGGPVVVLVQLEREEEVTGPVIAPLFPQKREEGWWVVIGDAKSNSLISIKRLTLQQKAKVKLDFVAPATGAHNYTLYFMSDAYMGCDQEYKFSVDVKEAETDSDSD
UniProt Q8TAQ2, whole entry, looked up: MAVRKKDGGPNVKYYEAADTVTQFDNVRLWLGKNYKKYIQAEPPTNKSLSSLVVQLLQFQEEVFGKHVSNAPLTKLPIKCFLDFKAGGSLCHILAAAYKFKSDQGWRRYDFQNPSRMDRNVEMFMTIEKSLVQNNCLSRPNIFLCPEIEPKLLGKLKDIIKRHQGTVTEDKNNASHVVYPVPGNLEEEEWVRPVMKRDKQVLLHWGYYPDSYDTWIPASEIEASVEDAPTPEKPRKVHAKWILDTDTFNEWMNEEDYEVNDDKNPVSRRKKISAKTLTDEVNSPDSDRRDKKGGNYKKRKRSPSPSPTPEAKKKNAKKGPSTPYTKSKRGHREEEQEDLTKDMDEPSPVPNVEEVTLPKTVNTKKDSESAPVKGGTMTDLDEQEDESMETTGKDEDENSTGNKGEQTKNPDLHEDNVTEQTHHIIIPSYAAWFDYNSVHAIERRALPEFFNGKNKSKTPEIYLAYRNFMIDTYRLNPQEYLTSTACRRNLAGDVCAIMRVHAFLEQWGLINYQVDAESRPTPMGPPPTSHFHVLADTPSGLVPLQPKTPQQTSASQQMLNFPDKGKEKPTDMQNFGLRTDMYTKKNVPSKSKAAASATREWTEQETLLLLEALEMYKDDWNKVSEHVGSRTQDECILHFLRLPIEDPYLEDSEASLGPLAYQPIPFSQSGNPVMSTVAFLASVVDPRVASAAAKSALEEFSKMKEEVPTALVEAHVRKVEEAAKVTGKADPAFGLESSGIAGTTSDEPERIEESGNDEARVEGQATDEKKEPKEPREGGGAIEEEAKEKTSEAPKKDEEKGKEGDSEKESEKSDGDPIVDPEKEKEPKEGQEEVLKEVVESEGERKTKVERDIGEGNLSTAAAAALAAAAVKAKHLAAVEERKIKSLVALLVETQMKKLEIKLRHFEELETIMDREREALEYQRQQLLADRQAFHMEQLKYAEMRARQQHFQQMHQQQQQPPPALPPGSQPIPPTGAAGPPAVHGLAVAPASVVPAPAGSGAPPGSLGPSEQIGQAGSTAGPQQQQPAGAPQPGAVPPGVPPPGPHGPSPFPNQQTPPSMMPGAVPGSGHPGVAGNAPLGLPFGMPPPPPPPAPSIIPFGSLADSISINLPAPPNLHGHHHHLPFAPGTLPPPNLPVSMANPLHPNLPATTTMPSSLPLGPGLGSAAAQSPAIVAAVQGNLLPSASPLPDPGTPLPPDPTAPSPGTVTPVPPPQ
UniProt P62318, whole entry, looked up: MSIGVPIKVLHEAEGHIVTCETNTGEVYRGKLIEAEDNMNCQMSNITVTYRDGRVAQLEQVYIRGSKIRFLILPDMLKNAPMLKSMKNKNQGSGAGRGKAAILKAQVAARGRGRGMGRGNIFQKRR
UniProt Q96EX1: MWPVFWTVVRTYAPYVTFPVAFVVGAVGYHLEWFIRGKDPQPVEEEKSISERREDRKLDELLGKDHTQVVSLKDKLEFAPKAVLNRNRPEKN
UniProt O00193: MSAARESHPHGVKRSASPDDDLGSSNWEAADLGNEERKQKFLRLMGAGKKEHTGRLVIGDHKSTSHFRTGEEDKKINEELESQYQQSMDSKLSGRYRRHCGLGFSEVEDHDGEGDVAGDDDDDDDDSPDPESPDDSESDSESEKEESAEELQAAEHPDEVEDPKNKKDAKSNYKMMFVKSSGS
UniProt O60493, whole entry, looked up: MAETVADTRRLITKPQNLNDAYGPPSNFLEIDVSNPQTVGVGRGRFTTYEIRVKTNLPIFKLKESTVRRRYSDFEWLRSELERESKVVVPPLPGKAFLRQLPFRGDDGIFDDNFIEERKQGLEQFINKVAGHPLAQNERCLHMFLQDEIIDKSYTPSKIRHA
UniProt Q00796: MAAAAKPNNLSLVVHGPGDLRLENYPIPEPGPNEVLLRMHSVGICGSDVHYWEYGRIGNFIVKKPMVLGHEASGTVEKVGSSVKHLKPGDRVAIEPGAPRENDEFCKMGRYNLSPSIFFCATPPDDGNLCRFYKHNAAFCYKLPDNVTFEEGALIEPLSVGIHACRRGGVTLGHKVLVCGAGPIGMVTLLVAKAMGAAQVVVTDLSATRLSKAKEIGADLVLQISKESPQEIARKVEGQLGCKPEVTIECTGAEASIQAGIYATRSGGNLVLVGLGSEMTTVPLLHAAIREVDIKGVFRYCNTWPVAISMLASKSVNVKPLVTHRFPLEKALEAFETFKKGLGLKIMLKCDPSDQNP
UniProt Q7Z3B0: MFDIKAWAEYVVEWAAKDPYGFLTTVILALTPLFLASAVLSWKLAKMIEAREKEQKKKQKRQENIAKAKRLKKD
UniProt O75971: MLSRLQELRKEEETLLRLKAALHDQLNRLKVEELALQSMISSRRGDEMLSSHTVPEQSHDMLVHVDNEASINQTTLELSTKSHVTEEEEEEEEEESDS
UniProt B2RUZ4: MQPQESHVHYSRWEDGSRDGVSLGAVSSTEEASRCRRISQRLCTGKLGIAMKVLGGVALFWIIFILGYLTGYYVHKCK

Assays:
Test in all cases: log2 fold change, soluble protein after heating vs DMSO (PISA); higher = thermal stabilisation; K562 cells, 10 uM, 30 min; active = over 0.2 and 3.5 SD of the protein, either way, in both replicates (recomputed)
[1] = compound: C#Cc1cccc(Nc2ncnc3cc(OCCOC)c(OCCOC)cc23)c1 [erlotinib]
How it was run: (§1)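 K562 cells at 2×10^6 cells/mL were given 10 μM compound for 30 min. Aliquots then went through 3 min of heating across 48°C-58°C, were pooled, and were extracted in PBS with 0.5% NP-40 at 4°C, and the supernatant after 21,000xg for 90 min was quantified by TMTpro 16plex LC-MS/MS with channel sums equalised. Thermal stability relative to control samples, from duplicates, is given as log2 fold change.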

[2] = compound: C/C(=N\NC(=O)C1=CC(=CC=C1)S(=O)(=O)N2CCOCC2)/C3=C(C=CC(=C3)Cl)O
How it was run: as §1

[3] = compound: C1=CC(=C(C=C1Cl)C2=NC3=NC=CN=C3C(=N2)NC4=CC=NC=C4)F
How it was run: as §1

[4] = compound: C1=CC(=CC=C1C2=NC3=C(N2)C=C(C=C3)C(=O)N)OC4=CC=C(C=C4)Cl
How it was run: as §1

[5] = compound: C1=CC2=C(C=CC(=C2)/C=C\3/C(=O)NC(=NCC4=CC=CS4)S3)N=C1
How it was run: as §1

[6] = compound: C1=CC2=NC=CN=C2C=C1/C=C/3\C(=O)NC(=O)S3
How it was run: as §1

[7] = compound: C1=CC=C(C=C1)C2=NC(=C(N2)C3=CC=NC=C3)C4=CC(=C(C=C4)Cl)O
How it was run: as §1

[8] = compound: C1=CC=C2C(=C1)C3=NNC4=CC=CC(=C43)C2=O
How it was run: as §1

[9] = compound: C1CCN(C1)C(=O)NC2=CC=CC(=C2)NC3=NC=C(C(=N3)NCCC4=CN=CN4)Br
How it was run: as §1

[10] = compound: C1CN(CCC1(CC2=CC=C(C=C2)Cl)N)C3=NC=NC4=C3C=CN4
How it was run: as §1

Measured: log2 fold change

SNRPC (UniProt P09234)
inactive: [1] -0.031 | [2] -0.058 | [3] -0.008 | [4] 0.005 | [5] -0.123 | [6] 0.096 | [7] 0.009 | [8] -0.053 | [9] -0.001 | [10] 0.098

SMYD2 (UniProt Q9NRG4)
inactive: [1] 0.011 | [2] 0.221 | [3] -0.042 | [4] -0.141 | [5] 0.119 | [6] -0.087 | [7] 0.065 | [8] 0.201 | [9] -0.154 | [10] -0.05

SNRPB isoform 3 (UniProt P14678)
inactive: [1] -0.043 | [2] -0.021 | [3] -0.149 | [4] 0.044 | [5] -0.07 | [6] 0.068 | [7] 0.172 | [8] -0.046 | [9] 0.041 | [10] -0.024

SNRPD2 (UniProt P62316)
inactive: [1] -0.047 | [2] -0.093 | [3] -0.039 | [4] 0 | [5] -0.069 | [6] 0.066 | [7] -0.01 | [8] -0.057 | [9] 0.032 | [10] -0.005

SNX5 (UniProt Q9Y5X3)
inactive: [1] 0.033 | [2] 0.09 | [3] 0.042 | [4] 0.022 | [5] 0.057 | [6] -0.024 | [7] -0.05 | [8] -0.038 | [9] 0.077 | [10] -0.009

SNRPD1 (UniProt P62314)
inactive: [1] -0.036 | [2] -0.085 | [3] -0.099 | [4] 0.018 | [5] -0.005 | [6] 0.039 | [7] -0.124 | [8] -0.005 | [9] 0.095 | [10] -0.042

SNRNP27 (UniProt Q8WVK2)
inactive: [1] 0.026 | [2] -0.021 | [3] 0.052 | [4] 0.015 | [5] 0.015 | [6] 0.045 | [7] -0.165 | [8] -0.027 | [9] 0.061 | [10] 0.035

SNX17 (UniProt Q15036)
inactive: [1] 0.051 | [2] 0.115 | [3] -0.082 | [4] -0.169 | [5] 0.052 | [6] -0.142 | [7] 0.031 | [8] 0.022 | [9] -0.161 | [10] -0.047

SNRPE (UniProt P62304)
inactive: [1] -0.045 | [2] -0.096 | [3] -0.05 | [4] -0.001 | [5] -0.012 | [6] 0.048 | [7] -0.036 | [8] 0.005 | [9] 0.023 | [10] 0

SOD1 (UniProt P00441)
inactive: [1] -0.054 | [2] -0.024 | [3] -0.044 | [4] 0.04 | [5] 0.063 | [6] 0.025 | [7] -0.083 | [8] -0.054 | [9] 0.036 | [10] -0.021

SNX14 (UniProt Q9Y5W7)
inactive: [1] 0.064 | [2] -0.237 | [3] -0.146 | [4] 0.054 | [5] 0.041 | [6] -0.045 | [7] -0.051 | [8] 0.018 | [9] 0.039 | [10] 0.022

SNRNP200 (UniProt O75643)
inactive: [1] -0.08 | [2] 0.002 | [3] -0.058 | [4] 0.088 | [5] -0.005 | [6] 0.05 | [7] -0.064 | [8] -0.033 | [9] 0.014 | [10] -0.041

SMIM8 (UniProt Q96KF7)
inactive: [1] 0 | [2] 0.062 | [3] -0.156 | [4] -0.019 | [5] 0.047 | [6] 0.005 | [7] -0.036 | [8] -0.036 | [9] 0.015 | [10] 0.01

SNAPIN (UniProt O95295)
inactive: [1] 0.022 | [2] 0.022 | [3] 0.124 | [4] 0.052 | [5] 0.072 | [6] 0.049 | [7] -0.065 | [8] 0.054 | [9] -0.021 | [10] -0.049

Pulled one by one from above, two records:
SNRPE (UniProt P62304)
inactive: [1] -0.045 | [2] -0.096 | [3] -0.05 | [4] -0.001 | [5] -0.012 | [6] 0.048 | [7] -0.036 | [8] 0.005 | [9] 0.023 | [10] 0

SNRPC (UniProt P09234)
inactive: [1] -0.031 | [2] -0.058 | [3] -0.008 | [4] 0.005 | [5] -0.123 | [6] 0.096 | [7] 0.009 | [8] -0.053 | [9] -0.001 | [10] 0.098

The results go on.

SMARCC2 (UniProt Q8TAQ2)
inactive: [1] 0.112 | [2] 0.142 | [3] 0.086 | [4] -0.069 | [5] 0.027 | [6] 0.074 | [7] 0.069 | [8] -0.019 | [9] -0.09 | [10] -0.259

SNRPD3 (UniProt P62318)
inactive: [1] -0.019 | [2] -0.02 | [3] -0.04 | [4] -0.038 | [5] 0.012 | [6] 0.079 | [7] -0.113 | [8] -0.076 | [9] 0.068 | [10] -0.012

SP3 (UniProt Q02447)
inactive: [1] 0.034 | [2] -0.028 | [3] 0 | [4] 0.059 | [5] 0.003 | [6] -0.051 | [7] -0.053 | [8] -0.066 | [9] -0.065 | [10] -0.1

SMIM12 (UniProt Q96EX1)
inactive: [1] 0.049 | [2] 0.114 | [3] 0.069 | [4] -0.019 | [5] -0.146 | [6] -0.005 | [7] -0.022 | [8] 0.032 | [9] -0.018 | [10] 0.076

SMARCA5 (UniProt O60264)
inactive: [1] 0.103 | [2] 0.044 | [3] -0.058 | [4] 0.005 | [5] -0.012 | [6] 0.078 | [7] 0.052 | [8] -0.103 | [9] -0.109 | [10] -0.227

SORBS1 isoform 12 (UniProt Q9BX66)
inactive: [1] 0.011 | [2] -0.008 | [3] -0.051 | [4] 0.005 | [5] 0.024 | [6] 0.016 | [7] 0.046 | [8] -0.028 | [9] 0.025 | [10] 0.044

SMAP (UniProt O00193)
inactive: [1] -0.006 | [2] 0.026 | [3] 0.119 | [4] 0.017 | [5] -0.063 | [6] 0.073 | [7] -0.012 | [8] 0.015 | [9] 0.006 | [10] 0.047

SNX3 (UniProt O60493)
inactive: [1] 0.129 | [2] 0.074 | [3] -0.056 | [4] -0.052 | [5] 0.078 | [6] -0.058 | [7] 0.123 | [8] -0.136 | [9] 0.026 | [10] -0.068

SMG5 (UniProt Q9UPR3)
inactive: [1] 0.08 | [2] -0.169 | [3] -0.001 | [4] 0.125 | [5] -0.058 | [6] 0.045 | [7] 0.048 | [8] 0.002 | [9] -0.009 | [10] -0.011

SNAP47 (UniProt Q5SQN1)
inactive: [1] 0.104 | [3] -0.374 | [4] -0.105

SORD (UniProt Q00796)
inactive: [1] -0.035 | [2] -0.003 | [3] 0.043 | [4] 0.055 | [5] 0.018 | [6] -0.013 | [7] -0.021 | [8] -0.04 | [9] 0.003 | [10] 0.049

SPAG9 (UniProt O60271)
inactive: [1] 0.018 | [2] -0.025 | [3] 0.034 | [4] -0.016 | [5] 0.028 | [6] 0.039 | [7] -0.016 | [8] -0.012 | [9] 0.015 | [10] -0.009

SMIM15 (UniProt Q7Z3B0)
inactive: [1] -0.031 | [2] 0.036 | [3] -0.076 | [4] -0.058 | [5] 0.009 | [6] 0 | [8] 0.148 | [9] -0.039 | [10] 0.088

SNAPC5 (UniProt O75971)
inactive: [1] -0.102 | [2] -0.012 | [3] 0.082 | [4] 0.067 | [5] -0.052 | [6] 0.103 | [8] -0.143 | [9] -0.08 | [10] -0.01

SNU13, A0A3B3IUA2
inactive: [1] 0.01 | [2] -0.055 | [3] 0.038 | [4] -0.025 | [5] 0.202 | [6] 0.02 | [7] -0.335 | [8] 0 | [9] 0.123 | [10] 0.064

SMIM1 (UniProt B2RUZ4)
inactive: [1] 0.05 | [2] -0.103 | [4] -0.15 | [5] 0.156 | [6] 0.055 | [8] -0.096 | [9] 0.019 | [10] 0.006
